# Experimental data: PubChem BioAssay AID504786 (Drosophila RNAi Screening Center, 2011)
# Assay: 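Knock-downs reducing HIF reporter induction by the iron chelator DFO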 (primary screen)
# System: Drosophila S2 cells with a stable HIF luciferase reporter
# Reagent: long dsRNA against Drosophila genes, about 0.2 µg dsRNA per well of a 384-well plate
# Time to read-out: three days of knock-down, then 20 h of DFO before reading
# Treatment: desferrioxamine (DFO) at 100 µM, an iron chelator that mimics hypoxia, for 20 h
# Read-out: 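Firefly luciferase driven by the mouse ldh-a hypoxia-response element, measured after 20 h of 100 µM DFO; z-scores per plate, higher means more signal lost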
# Scale: z-score: higher = stronger loss of HIF reporter signal
# The deposit covers about 21,000 reagents; below is an unselected part of those with a known target gene and a result. 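Primary screen; positive scores mean lost reporter signal, so the sign may be inverted from the usual convention.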
target,dsRNA,"z-score, replicate 1","z-score, replicate 2","z-score, replicate 3","z-score, replicate 4"
CG15198,DRSC19645,-0.1,-0.5,,
wry (weary),DRSC00352,-0.1,0.7,,
wry (weary),DRSC00456,0,-0.1,,
mts (microtubule star),DRSC03574,0.4,2.1,,
sub (subito),DRSC06125,-0.1,0.3,,
PTP-ER (Protein tyrosine phosphatase-ERK/Enhancer of Ras1),DRSC04636,-0.4,-0.6,,
kumpel (kin of rumpel),DRSC14883,-0.3,-0.7,,
kumpel (kin of rumpel),DRSC16459,-0.4,-0.5,,
kumpel (kin of rumpel),DRSC16460,-0.4,-0.6,,
kumpel (kin of rumpel),DRSC16461,-0.2,-0.2,,
kumpel (kin of rumpel),DRSC16462,-0.3,-0.3,,
kumpel (kin of rumpel),DRSC16463,-0.5,-0.5,,
CG43867,DRSC17582,-0.1,-0.2,,
CG43867,DRSC17836,-0.3,-0.2,,
CG43867,DRSC17837,-0.2,-0.1,,
CG43867,DRSC17943,-0.2,-0.9,,
CG32855,DRSC13131,0.1,0,,
CG14740,DRSC14960,-0.3,-0.4,,
Pex2 (Peroxin 2),DRSC10770,-0.2,-0.3,,
CG34202,DRSC05907,0.7,-0.3,,
CG4066,DRSC15541,-0.4,-0.3,,
CG17707,DRSC20650,-0.1,-0.2,,
DnaJ-1 (DnaJ-like-1),DRSC11145,-0.2,0.2,,
Hsc70-3 (Heat shock protein 70 cognate 3),DRSC20253,-0.4,1,,
Cpr62Bb (Cuticular protein 62Bb),DRSC08404,-0.4,-0.5,,
CG3690,DRSC18170,-0.3,-0.3,,
CG3690,DRSC18641,-0.3,-0.3,,
Cchl (Cytochrome c heme lyase),DRSC15949,-0.1,0.4,,
Hap40 (Huntingtin-associated protein 40 kDa),DRSC20085,-0.2,-0.2,,
CG6951,DRSC10755,-0.1,-0.1,,
nej (nejire),DRSC18006,-0.5,1.1,,
nej (nejire),DRSC18801,0.6,0.7,,
slif (slimfast),DRSC11635,-0.3,-0.5,,
Ir48c (Ionotropic receptor 48c),DRSC06154,-0.6,-1.1,,
promL (prominin-like),DRSC08733,-0.4,-0.2,,
tn (thin),DRSC05768,-0.2,-0.3,,
tn (thin),DRSC06532,-0.2,0.4,,
CG13685,DRSC10043,-0.2,-0.3,,
fz (frizzled),DRSC11348,-0.3,-0.4,,
CG14282,DRSC14763,-0.4,0.3,,
CG6933,DRSC10751,-0.3,-0.3,,
Dhit (Double hit),DRSC07411,-0.2,-0.3,,
CG13700,DRSC10049,-0.2,-0.3,,
CG32260,DRSC08084,0,-0.3,,
cag,DRSC07587,-0.1,-0.3,,
CG8272,DRSC07134,-0.4,0,,
CG9525,DRSC03249,-0.3,-0.1,,
CG12849,DRSC04129,-0.1,-0.4,,
cer (crammer),DRSC05992,-0.3,-0.5,,
Tsp33B (Tetraspanin 33B),DRSC02418,-0.1,-0.2,,
MICU1 (Mitochondrial calcium uptake 1),DRSC02752,-0.3,-0.6,,

Ordered by “z-score, replicate 1” (high to low): some entries from above.
target,dsRNA,"z-score, replicate 1","z-score, replicate 2","z-score, replicate 3","z-score, replicate 4"
CG32855,DRSC13131,0.1,0,,
CG43867,DRSC17837,-0.2,-0.1,,
CG43867,DRSC17943,-0.2,-0.9,,
CG14740,DRSC14960,-0.3,-0.4,,

Additional results:
target,dsRNA,"z-score, replicate 1","z-score, replicate 2","z-score, replicate 3","z-score, replicate 4"
Acbp6 (Acyl-CoA binding protein 6),DRSC10217,-0.2,0,,
mei-38 (meiotic 38),DRSC18564,-0.2,0.3,,
BubR1 (Bub1-related kinase),DRSC04838,0.3,0.4,,
CG5853,DRSC01103,-0.3,-0.4,,
CG5853,DRSC02906,-0.3,-0.8,,
Rcd7 (Reduction in Cnn dots 7),DRSC10100,-0.3,-0.3,,
CG34290,DRSC13660,-0.3,-0.2,,
lic (licorne),DRSC20347,1.1,0.3,,
CG43775,DRSC04206,-0.2,-0.3,,
Skadu,DRSC01490,-0.3,0.2,,
prel (preli-like),DRSC07271,-0.4,-0.4,,
Pex5 (Peroxin 5),DRSC18552,-0.2,-0.7,,
Vha16-2 (Vacuolar H[+] ATPase 16kD subunit 2),DRSC10873,-0.2,-0.3,,
CG9500,DRSC03237,-0.3,-0.3,,
CG33136,DRSC05744,0.3,-0.1,,
U2af50 (U2 small nuclear riboprotein auxiliary factor 50),DRSC20297,4,3.5,,
Cisd2 (CDGSH iron sulfur domain 2),DRSC14904,0,0.1,,
mgl (Megalin),DRSC17800,-0.3,-0.7,,
mgl (Megalin),DRSC17823,-0.4,-0.6,,
mgl (Megalin),DRSC17859,-0.5,-0.3,,
mgl (Megalin),DRSC18004,-0.4,0,,
nsl1 (non-specific lethal 1),DRSC15625,5.6,4.8,,
Rab40,DRSC19820,-0.4,0.5,,
CG15142,DRSC02443,-0.3,-0.1,,
Sqor (Sulfide quinone oxidoreductase),DRSC08453,-0.3,-0.5,,
CG8136,DRSC16385,-0.3,-0.8,,
ERR (estrogen-related receptor),DRSC10840,-0.4,-0.5,,
S-Lap7 (Sperm-Leucylaminopeptidase 7),DRSC06374,0.2,0,,
CG33178,DRSC19950,-0.3,0.5,,
Nepl11 (Neprilysin-like 11),DRSC12333,-0.3,-0.3,0.4,-0.3
CG1791,DRSC18141,-0.3,-0.7,,
GstE3 (Glutathione S transferase E3),DRSC06673,-0.3,0,,
